## Primary screen of a compound library

Amino acid sequences for entries named in this document (tags omitted). Residues count along the entry.
UniProt P9WPC5, whole entry: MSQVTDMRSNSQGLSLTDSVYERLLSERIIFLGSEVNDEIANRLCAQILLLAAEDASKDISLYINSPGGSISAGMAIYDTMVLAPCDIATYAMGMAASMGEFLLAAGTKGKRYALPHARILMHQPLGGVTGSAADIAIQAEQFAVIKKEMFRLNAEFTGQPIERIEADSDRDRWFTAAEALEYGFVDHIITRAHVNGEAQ
UniProt P9WPC3, whole entry partner: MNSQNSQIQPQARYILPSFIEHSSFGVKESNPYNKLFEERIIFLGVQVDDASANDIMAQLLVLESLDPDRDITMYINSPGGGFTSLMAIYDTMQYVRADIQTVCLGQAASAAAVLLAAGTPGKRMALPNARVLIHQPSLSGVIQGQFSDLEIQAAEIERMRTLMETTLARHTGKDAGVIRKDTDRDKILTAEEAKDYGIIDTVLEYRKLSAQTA
UniProt P9WNZ1, whole entry: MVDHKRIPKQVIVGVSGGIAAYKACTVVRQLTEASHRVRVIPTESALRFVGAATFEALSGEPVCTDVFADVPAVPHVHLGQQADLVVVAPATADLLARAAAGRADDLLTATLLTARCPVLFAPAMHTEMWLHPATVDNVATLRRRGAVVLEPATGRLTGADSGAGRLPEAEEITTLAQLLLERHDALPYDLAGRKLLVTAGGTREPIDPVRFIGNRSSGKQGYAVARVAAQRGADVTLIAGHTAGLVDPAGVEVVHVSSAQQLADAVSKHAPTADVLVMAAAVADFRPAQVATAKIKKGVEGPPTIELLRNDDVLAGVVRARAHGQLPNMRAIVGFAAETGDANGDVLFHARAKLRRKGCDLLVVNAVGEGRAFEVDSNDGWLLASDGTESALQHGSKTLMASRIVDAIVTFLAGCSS
UniProt Q8IDJ8, 1-583: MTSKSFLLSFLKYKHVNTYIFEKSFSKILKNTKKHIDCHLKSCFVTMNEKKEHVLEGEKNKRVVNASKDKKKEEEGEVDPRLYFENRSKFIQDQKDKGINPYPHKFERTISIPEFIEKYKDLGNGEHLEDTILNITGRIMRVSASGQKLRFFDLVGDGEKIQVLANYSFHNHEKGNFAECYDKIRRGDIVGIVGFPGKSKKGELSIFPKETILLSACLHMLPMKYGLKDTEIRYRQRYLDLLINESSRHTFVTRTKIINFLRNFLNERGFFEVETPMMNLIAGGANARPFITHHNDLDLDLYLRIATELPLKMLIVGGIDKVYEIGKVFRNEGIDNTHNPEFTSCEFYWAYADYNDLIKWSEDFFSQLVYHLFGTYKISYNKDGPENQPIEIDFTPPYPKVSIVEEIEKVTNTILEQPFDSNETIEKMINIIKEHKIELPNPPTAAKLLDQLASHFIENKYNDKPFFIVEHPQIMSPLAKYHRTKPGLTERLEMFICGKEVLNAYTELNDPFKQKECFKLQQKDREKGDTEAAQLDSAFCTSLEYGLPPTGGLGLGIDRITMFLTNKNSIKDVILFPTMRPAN

The values are deposited in ChEMBL (CHEMBL3988442, “University of Dundee, Small-Polar-MMV Screening Library” (2021)).

ClpP1P2: 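ClpP1P2, Mycobacterium tuberculosis (UniProt P9WPC5 and UniProt P9WPC3). Protease assay of ClpP1P2, read by the AMC dye that it sets free. Tested at 50 µM. Higher reads as stronger inhibition, judged from the few compounds that gave an IC50. Most other retested compounds had strongly negative values. Size under these conditions: about 69,000 compounds, about 10 of them at 50% or above in at least one test.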
CoaBC: 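Coenzyme A biosynthesis protein CoaBC, Mycobacterium tuberculosis (UniProt P9WNZ1). Enzyme assay of CoaBC with a phosphate dye (Biomol Green) read at 650 nm. Compounds at 30 µM. Higher reads as stronger inhibition, judged from the few compounds that gave an IC50. Most strong results did not repeat in a second test. Of about 67,000 compounds tested this way, about 40 (0.06%) reached 50% or more in at least one test.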
PfKRS1: 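Lysine-tRNA ligase, Plasmodium falciparum 3D7 (UniProt Q8IDJ8). Enzyme assay of the cytosolic lysyl-tRNA synthetase in 384-well plates, read by luminescence. Concentration: 30 µM. Direction is inferred from only a few compounds that gave an IC50; most scored high, so higher reads as stronger inhibition. Size under these conditions: about 69,000 compounds, about 49 of them at 50% or above in at least one test.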
Leishmania in macrophages: 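Cell assay of Leishmania donovani living inside macrophages; the read-out is not stated. Concentration: 30 µM. Higher reads as stronger inhibition (inferred: compounds with an IC50 in retests scored well above the rest). Of about 69,000 compounds tested this way, about 1,000 (1.5%) reached 50% or more in at least one test.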

The filed quantity is “Percent Effect” (%). The record does not define 0% and 100%; most values in the screen are far below 50% and negative numbers occur (in some assays of this library far below -100). Compounds were drawn at random from those tested, without regard to their results. Two or more numbers in one place are separate tests of the same structure; such repeats can differ widely.

NC1C=C(C(F)(F)F)NC=C1c1ccccc1 (centres undefined) gave ClpP1P2: 1.065%; CoaBC: -3.067%; PfKRS1: 3.277%; Leishmania in macrophages: 11.23%.
O=C(NCCC1COc2ccccc2O1)c1ccc(N2CC(O)C2)nc1 (centres undefined) gave ClpP1P2: -4.665%; CoaBC: 9.307%; PfKRS1: -2.123%; Leishmania in macrophages: 0.713%.
[H][C@]12CN(CC=C(C)C)C[C@@]1(C(=O)O)CN(C(=O)c1cnccc1C)C2 gave Leishmania in macrophages: 30.54%.
COCC(=O)N1C[C@H]2CN(Cc3csc(C)n3)C(=O)[C@H]2C1 gave ClpP1P2: 0.3415%; CoaBC: 3.299%; PfKRS1: -0.5573%.
CC(=O)NCC(=O)N1CCC2(CC1)CN(c1cccnc1)C(=O)CO2 gave ClpP1P2: 6.267%; CoaBC: 7.455%; PfKRS1: 5.134%; Leishmania in macrophages: 20.67%.
Cc1cc(NC(=O)CSc2nc(=O)ccn2C(C)C)no1 gave ClpP1P2: -8.446%; CoaBC: -2.457%; PfKRS1: 3.947%; Leishmania in macrophages: 3.695%.
Cc1cc(C)n(CCN2CCC(N(C)Cc3noc(C4CC4)n3)C2)n1 (centres undefined) gave ClpP1P2: -11.57%; CoaBC: -2.917%; PfKRS1: 4.744%; Leishmania in macrophages: 30.34%.
CCN(CC)CCn1cnc(-c2ccccc2)c1-c1cnc(C)s1 gave ClpP1P2: -17.04%; CoaBC: 2.112%; PfKRS1: 5.185%; Leishmania in macrophages: 2.793%.
CN(C)CCNC(=O)c1nc2c(o1)CN(C(=O)c1cccnc1)C2.O=C(O)C(F)(F)F.O=C(O)C(F)(F)F gave Leishmania in macrophages: -40.34%.
O=C(O)C(F)(F)F.O=C(O)C(F)(F)F.O=C(c1ccncc1)N1CCCn2c(CN3CCCC3)nnc2C1 gave Leishmania in macrophages: 0.3882%.
Cc1cc(F)ccc1S(=O)(=O)NCC(O)c1cccn1C (centres undefined) gave ClpP1P2: -6.401%; CoaBC: -4.44%; PfKRS1: 4.787%; Leishmania in macrophages: 13.41% and 9.279%.
Cc1oc(-c2ccco2)nc1CC(=O)N1CCN(CC(C)O)CC1 (centres undefined) gave ClpP1P2: 6.86%; CoaBC: 12.31%; PfKRS1: 2.476%; Leishmania in macrophages: 5.566%.
Cc1nc([C@H]2C[C@H]3CN(C(=O)c4ccoc4C)CC[C@@H]3O2)no1 gave ClpP1P2: -5.967%; CoaBC: 5.71%; PfKRS1: 2.072%.
CC(C#N)CNS(=O)(=O)c1ccc(Br)c(F)c1 (centres undefined) gave ClpP1P2: 1.823%; CoaBC: 0%; PfKRS1: 5.794%; Leishmania in macrophages: 9.086%.
Cc1nc(C2CCCN2Cc2nc(C3CC3)no2)no1 (centres undefined) gave ClpP1P2: -21.69%; CoaBC: 11.08%; PfKRS1: 1.602%; Leishmania in macrophages: 21.89%.
[H][C@]12CCN(S(=O)(=O)c3ccc(C)cc3)C[C@@]1([H])OCCN(C(C)=O)C2 gave Leishmania in macrophages: -10.93%.
CCn1nc2c(cc1=O)CN(Cc1nc(-c3cccnc3)no1)CC2 gave ClpP1P2: -38.22%; CoaBC: 2.558%; PfKRS1: 2.135%; Leishmania in macrophages: 23.93%.
COC(=O)c1ccc(N2CCN(C(=O)CCCc3cn[nH]c3)CC2)cc1 gave ClpP1P2: 6.667%; CoaBC: 3.808%; PfKRS1: 0.7884%; Leishmania in macrophages: 13.65%.
[H][C@@]12CCN(C(=O)N(C)C)[C@]1([H])CCC(=O)N2CCOC gave Leishmania in macrophages: 9.824%.
O=C(NCc1ccccc1Cn1cncn1)C1CCC1 gave ClpP1P2: 4.281%; CoaBC: -0.6519%; PfKRS1: 1.363%; Leishmania in macrophages: 19.94%.
CCN1CC(CN(C)Cc2nc(-c3cccc(Cl)c3)oc2C)CC1=O (centres undefined) gave ClpP1P2: -21.12%; CoaBC: 3.471%; PfKRS1: -4.971%; Leishmania in macrophages: 17.87%.
Cc1ccc(Nc2cc(N3CCN(S(C)(=O)=O)CC3)nc(C)n2)cc1 gave ClpP1P2: 0.2321%; CoaBC: 4.81%; PfKRS1: 10.72%; Leishmania in macrophages: 2.242% and 3.095%.
Cc1nc(CN2CCCN(C(=O)c3sccc3C#N)CC2)cs1 gave ClpP1P2: -52.74%; CoaBC: 4.7%; PfKRS1: 1.368%; Leishmania in macrophages: 1.772%.
COCCN(CCOC)C(=O)NC1CCCCC1 gave ClpP1P2: -11.32%; CoaBC: 0%; PfKRS1: 1.087%; Leishmania in macrophages: 7.257%.